Results are given in words; binding and its absence hold for the method and conditions named. In cells and extracts the contact can be indirect. Some entries that bind do so weakly or less than the wild type.
Target: GFP-CtIP (human) (UniProt Q99708)
Assay: co-IP; GFP-Trap_M magnetic beads on 1 mg extract of U2OS cells expressing GFP-CtIP or GFP; 50 mM Tris-HCl pH 7.5, 50 mM NaCl, 1 mM EDTA, 0.2% Triton X-100; overnight at 4 °C; blotted

Protein sequences, listed by entry. Tags and fused reporters are not part of them.
UniProt Q99708: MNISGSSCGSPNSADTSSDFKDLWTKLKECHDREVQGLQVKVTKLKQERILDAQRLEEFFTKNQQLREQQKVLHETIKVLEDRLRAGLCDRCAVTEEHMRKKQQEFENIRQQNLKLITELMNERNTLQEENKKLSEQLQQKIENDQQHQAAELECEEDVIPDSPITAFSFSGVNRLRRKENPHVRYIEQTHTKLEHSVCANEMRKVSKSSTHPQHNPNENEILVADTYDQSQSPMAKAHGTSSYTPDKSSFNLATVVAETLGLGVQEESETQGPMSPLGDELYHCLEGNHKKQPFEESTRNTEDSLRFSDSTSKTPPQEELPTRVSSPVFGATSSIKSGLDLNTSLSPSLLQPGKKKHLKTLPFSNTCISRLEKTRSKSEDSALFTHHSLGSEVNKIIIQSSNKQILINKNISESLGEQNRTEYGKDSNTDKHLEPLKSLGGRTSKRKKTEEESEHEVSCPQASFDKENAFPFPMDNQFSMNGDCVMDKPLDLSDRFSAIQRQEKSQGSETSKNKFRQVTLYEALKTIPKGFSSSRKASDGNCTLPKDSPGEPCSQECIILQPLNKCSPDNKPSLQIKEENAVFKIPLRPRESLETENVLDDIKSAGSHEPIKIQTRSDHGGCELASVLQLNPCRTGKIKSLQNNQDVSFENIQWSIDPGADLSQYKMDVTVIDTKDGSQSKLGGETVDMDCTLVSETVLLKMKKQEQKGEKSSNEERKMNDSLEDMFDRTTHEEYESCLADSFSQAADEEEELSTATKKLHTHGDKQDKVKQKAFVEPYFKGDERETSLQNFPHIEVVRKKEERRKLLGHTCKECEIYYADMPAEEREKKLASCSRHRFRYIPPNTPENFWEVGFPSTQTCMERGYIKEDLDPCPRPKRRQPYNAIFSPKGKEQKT

binding: binds
B1: CBX4 (protein, UniProt O00257 1-560)
chain: MELPAVGEHVFAVESIEKKRIRKGRVEYLVKWRGWSPKYNTWEPEENILDPRLLIAFQNRERQEQLMGYRKRGPKPKPLVVQVPTFARRSNVLTGLQDSSTDNRAKLDLGAQGKGQGHQYELNSKKHHQYQPHSKERAGKPPPPGKSGKYYYQLNSKKHHPYQPDPKMYDLQYQGGHKEAPSPTCPDLGAKSHPPDKWAQGAGAKGYLGAVKPLAGAAGAPGKGSEKGPPNGMMPAPKEAVTGNGIGGKMKIVKNKNKNGRIVIVMSKYMENGMQAVKIKSGEVAEGEARSPSHKKRAADERHPPADRTFKKAAGAEEKKVEAPPKRREEEVSGVSDPQPQDAGSRKLSPTKEAFGEQPLQLTTKPDLLAWDPARNTHPPSHHPHPHPHHHHHHHHHHHHAVGLNLSHVRKRCLSETHGEREPCKKRLTARSISTPTCLGGSPAAERPADLPPAAALPQPEVILLDSDLDEPIDLRCVKTRSEAGEPPSSLQVKPETPASAAVAVAAAAAPTTTAEKPPAEAQDEPAESLSEFKPFFGNIIITDVTANCLTVTFKEYVTV

Reference: article PMC5524638
